Data reported in the supplement of paper PMC10849652.
This is one part of the list.

By UniProt entry, the sequences of proteins in these tests, tags left out. Where a name states a change or a piece, a line headed by the entry shows the natural chain unless it says otherwise.
UniProt Q3LIE5: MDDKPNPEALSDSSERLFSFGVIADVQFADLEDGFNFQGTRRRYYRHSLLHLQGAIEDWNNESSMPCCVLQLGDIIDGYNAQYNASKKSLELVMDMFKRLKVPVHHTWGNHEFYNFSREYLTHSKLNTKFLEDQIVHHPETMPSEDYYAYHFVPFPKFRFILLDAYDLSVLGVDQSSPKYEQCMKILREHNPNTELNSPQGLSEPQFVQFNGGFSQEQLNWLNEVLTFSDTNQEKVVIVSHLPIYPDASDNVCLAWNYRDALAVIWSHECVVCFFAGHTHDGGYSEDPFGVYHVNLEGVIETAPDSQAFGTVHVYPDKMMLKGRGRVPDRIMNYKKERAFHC
UniProt Q9NUB1: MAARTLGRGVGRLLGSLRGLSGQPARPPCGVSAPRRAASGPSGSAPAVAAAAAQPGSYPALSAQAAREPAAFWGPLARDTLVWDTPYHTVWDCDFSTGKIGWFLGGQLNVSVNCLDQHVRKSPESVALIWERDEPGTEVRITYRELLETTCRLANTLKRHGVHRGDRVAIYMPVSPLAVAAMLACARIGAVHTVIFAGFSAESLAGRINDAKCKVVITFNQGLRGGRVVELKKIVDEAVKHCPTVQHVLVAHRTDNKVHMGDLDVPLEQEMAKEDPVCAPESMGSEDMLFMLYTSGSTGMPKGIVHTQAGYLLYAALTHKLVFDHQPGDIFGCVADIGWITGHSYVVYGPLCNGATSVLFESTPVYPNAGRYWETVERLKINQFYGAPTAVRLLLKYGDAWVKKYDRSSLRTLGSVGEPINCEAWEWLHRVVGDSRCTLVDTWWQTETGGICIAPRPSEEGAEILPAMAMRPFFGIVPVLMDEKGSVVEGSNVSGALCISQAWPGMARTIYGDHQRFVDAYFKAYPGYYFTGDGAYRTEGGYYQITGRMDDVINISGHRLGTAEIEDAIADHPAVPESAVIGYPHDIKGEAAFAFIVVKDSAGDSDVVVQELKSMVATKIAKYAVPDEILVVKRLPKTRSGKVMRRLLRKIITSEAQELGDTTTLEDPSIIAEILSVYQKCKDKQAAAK
UniProt Q63HM1: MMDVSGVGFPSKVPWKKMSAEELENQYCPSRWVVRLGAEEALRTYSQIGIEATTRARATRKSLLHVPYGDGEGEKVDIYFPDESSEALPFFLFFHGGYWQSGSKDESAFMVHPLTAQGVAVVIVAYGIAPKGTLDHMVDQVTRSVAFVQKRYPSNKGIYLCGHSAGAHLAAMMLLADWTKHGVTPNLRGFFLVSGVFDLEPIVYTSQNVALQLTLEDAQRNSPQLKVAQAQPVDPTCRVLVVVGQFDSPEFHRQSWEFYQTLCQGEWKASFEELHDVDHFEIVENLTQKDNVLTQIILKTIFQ
UniProt Q9NZD4: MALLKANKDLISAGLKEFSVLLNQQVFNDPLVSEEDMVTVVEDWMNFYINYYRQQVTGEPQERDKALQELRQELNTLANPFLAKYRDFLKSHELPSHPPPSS
UniProt Q96M93: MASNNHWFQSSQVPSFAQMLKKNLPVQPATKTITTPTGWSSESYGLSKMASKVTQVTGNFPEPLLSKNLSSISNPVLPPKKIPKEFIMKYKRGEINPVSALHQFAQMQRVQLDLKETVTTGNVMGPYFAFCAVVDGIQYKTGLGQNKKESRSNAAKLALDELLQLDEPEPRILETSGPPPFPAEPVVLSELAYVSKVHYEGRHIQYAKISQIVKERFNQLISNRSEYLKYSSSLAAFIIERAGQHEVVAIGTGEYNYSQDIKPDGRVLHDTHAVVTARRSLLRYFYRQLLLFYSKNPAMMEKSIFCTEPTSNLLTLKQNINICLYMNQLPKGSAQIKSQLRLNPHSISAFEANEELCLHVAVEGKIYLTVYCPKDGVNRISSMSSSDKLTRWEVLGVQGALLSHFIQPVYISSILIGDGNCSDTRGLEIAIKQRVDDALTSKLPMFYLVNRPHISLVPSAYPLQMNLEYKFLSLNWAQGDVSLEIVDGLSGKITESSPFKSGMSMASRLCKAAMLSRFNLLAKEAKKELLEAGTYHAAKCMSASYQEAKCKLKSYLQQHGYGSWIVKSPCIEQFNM
UniProt O60266: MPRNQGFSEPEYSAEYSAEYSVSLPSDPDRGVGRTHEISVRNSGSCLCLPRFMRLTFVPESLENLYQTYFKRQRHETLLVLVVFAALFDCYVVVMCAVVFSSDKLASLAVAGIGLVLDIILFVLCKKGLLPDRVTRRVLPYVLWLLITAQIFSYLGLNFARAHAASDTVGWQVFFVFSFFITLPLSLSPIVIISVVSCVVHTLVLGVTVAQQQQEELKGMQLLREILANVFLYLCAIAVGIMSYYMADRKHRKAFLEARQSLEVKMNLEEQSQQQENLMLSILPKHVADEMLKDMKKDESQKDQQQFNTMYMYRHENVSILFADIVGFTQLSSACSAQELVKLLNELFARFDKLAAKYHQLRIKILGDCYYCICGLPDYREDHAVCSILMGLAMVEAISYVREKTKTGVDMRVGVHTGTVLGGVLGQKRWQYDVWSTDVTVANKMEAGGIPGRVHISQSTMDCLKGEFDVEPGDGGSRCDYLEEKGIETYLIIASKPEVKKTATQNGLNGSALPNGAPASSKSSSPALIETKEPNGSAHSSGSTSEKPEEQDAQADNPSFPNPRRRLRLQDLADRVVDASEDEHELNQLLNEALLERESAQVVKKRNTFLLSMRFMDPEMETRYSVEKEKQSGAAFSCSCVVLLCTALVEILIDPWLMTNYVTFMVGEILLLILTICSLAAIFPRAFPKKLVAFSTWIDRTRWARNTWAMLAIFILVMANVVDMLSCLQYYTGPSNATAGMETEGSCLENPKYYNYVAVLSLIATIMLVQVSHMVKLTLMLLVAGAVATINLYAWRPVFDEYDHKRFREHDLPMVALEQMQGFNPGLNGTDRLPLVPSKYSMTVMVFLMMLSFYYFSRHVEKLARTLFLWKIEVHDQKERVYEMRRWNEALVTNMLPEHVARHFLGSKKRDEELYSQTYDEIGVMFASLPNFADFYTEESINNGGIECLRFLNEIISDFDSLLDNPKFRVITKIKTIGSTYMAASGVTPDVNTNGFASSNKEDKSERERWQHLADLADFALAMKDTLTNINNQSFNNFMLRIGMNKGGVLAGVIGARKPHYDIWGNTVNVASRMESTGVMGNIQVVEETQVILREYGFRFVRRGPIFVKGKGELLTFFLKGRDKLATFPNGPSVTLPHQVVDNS
UniProt Q13155: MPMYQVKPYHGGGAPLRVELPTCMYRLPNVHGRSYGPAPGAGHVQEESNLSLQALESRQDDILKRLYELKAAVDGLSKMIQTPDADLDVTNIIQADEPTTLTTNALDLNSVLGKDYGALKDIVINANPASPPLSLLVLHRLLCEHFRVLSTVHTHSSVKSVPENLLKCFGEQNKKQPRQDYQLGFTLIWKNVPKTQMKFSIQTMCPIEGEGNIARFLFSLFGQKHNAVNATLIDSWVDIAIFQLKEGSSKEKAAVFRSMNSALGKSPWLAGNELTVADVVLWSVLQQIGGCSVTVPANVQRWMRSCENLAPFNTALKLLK
UniProt Q8WYP5: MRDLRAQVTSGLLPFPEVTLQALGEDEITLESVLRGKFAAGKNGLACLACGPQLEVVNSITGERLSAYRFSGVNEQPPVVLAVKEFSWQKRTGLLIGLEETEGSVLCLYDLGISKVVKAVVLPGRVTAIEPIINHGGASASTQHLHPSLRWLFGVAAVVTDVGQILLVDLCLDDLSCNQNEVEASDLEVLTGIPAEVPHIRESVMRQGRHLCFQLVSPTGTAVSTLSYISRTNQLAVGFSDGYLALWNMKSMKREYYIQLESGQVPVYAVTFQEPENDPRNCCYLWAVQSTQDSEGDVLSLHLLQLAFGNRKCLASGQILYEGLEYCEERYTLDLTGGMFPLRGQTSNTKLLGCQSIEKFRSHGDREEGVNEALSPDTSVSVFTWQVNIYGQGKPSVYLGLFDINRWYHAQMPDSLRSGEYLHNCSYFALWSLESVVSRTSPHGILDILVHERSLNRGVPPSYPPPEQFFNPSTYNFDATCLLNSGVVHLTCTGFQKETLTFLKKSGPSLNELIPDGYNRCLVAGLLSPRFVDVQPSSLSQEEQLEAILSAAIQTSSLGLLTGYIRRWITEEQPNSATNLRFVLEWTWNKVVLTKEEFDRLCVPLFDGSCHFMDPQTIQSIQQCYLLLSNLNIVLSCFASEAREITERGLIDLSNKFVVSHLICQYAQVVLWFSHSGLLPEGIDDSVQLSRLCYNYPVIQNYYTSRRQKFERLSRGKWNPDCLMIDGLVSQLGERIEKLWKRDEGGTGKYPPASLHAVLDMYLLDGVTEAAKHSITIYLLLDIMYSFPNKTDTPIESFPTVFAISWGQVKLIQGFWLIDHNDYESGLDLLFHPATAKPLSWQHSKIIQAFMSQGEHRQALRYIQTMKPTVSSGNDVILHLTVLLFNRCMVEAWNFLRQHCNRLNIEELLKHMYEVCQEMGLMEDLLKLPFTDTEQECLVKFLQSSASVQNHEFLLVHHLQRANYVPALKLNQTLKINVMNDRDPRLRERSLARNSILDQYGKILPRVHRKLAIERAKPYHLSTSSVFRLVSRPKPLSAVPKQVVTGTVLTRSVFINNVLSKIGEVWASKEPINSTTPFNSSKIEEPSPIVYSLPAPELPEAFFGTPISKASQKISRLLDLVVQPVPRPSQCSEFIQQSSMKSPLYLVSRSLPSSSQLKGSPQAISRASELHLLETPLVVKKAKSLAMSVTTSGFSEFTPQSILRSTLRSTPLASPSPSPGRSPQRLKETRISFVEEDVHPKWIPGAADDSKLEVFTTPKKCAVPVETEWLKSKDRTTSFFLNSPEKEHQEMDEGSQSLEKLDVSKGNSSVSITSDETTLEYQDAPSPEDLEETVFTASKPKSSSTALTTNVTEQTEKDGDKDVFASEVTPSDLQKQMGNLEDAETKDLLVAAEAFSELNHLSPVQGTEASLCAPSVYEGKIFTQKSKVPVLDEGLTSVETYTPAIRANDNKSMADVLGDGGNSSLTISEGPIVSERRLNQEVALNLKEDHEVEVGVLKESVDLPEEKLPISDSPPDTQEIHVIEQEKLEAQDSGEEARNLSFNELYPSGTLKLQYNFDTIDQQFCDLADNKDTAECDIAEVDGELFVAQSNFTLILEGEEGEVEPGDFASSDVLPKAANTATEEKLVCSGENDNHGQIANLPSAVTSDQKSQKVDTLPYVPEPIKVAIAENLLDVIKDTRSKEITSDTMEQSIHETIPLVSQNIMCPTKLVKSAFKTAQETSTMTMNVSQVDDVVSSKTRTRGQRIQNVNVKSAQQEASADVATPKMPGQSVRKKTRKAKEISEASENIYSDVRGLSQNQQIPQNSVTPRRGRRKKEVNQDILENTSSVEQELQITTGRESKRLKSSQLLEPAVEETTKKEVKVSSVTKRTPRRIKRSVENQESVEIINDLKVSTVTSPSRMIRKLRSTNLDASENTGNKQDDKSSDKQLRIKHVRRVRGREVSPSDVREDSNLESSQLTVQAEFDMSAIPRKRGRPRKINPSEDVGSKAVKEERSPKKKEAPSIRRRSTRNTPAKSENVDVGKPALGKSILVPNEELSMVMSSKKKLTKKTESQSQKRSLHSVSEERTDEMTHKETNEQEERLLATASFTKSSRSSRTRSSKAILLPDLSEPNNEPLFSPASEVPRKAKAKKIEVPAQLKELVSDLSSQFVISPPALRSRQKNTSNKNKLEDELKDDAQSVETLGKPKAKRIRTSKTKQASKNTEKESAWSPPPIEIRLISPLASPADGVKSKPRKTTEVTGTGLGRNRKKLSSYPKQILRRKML
UniProt O60218, whole entry, looked up: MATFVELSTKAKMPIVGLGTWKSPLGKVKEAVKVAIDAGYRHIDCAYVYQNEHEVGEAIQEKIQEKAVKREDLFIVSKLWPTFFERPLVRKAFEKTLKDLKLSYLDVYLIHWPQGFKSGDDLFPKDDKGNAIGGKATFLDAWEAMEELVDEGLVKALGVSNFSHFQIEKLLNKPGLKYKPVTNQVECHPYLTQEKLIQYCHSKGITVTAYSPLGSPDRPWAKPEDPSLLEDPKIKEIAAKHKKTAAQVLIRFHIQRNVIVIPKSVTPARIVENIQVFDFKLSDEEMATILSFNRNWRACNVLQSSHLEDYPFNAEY
UniProt Q6RW13: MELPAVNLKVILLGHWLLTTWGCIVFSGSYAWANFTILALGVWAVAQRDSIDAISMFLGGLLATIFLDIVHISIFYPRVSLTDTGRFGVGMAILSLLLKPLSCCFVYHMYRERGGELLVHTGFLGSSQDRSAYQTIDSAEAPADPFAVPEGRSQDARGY
UniProt Q8NHP1: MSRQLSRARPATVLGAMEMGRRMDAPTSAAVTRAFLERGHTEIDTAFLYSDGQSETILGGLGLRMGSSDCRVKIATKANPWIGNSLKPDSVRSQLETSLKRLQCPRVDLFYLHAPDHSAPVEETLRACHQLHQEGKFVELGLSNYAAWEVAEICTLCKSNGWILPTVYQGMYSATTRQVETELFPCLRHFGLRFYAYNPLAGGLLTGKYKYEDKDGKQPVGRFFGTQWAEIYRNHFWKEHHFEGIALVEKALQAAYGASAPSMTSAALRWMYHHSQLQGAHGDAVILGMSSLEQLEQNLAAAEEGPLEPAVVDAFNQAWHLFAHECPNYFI

Each target was assayed with C1CN(CCC1(CC2=CC=C(C=C2)Cl)N)C3=NC=NC4=C3C=CN4 (assay: log2 fold change, soluble protein after heating vs DMSO (PISA); higher = thermal stabilisation; K562 lysate, 10 uM; active = over 0.2 and 3.5 SD of the protein, either way, in both replicates (recomputed)).
In short: (§1)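 Log-two fold change in thermal stability relative to solvent controls is reported from duplicates. For each sample, crude K562 extract from dounce-homogenised pellets in PBS pH 7.4 with 1 mM MgCl2, at 1 mg/mL protein, was treated with 10 μM compound for 30 min. Aliquots heated for 3 min across 48°C-58°C were pooled, brought to 0.5% NP-40 at 4°C and cleared at 21,000xg for 90 min. The supernatant was quantified by TMTpro 16plex LC-MS/MS with channel sums equalised.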

Target | log2 fold change
ADPRM (UniProt Q3LIE5) | inactive: 0.052
AFM (UniProt P43652) | inactive: 0.042
ACSS1 (UniProt Q9NUB1) | inactive: 0.067
ACTG1 (UniProt K7EM38) | inactive: -0.155
AFMID isoform 2 (UniProt Q63HM1) | inactive: -0.083
ADCK1 (UniProt Q86TW2) | inactive: 0.146
ACTN4 (UniProt K7EJH8) | inactive: -0.087
ACOX3 (UniProt O15254) | inactive: 0.068
ADCK5 (UniProt Q3MIX3) | inactive: 0.119
AHSP (UniProt Q9NZD4) | inactive: -0.055
ADAD1 (UniProt Q96M93) | inactive: -0.103

These targets were tested with C1COCCN1CCN2C3=CC=CC=C3N=C2NC(=O)C4=CC(=CC=C4)[N+](=O)[O-] [IRAK-1-4 Inhibitor I] in the same assay as above.
In short: as §1

Target | log2 fold change
ADPRM (UniProt Q3LIE5) | inactive: -0.025
ACSS1 (UniProt Q9NUB1) | inactive: 0.091
AFMID isoform 2 (UniProt Q63HM1) | inactive: -0.092
ADCY3 (UniProt O60266) | inactive: -0.05
ACTN4 (UniProt H7C144) | inactive: 0.051
AIMP2 isoform 2 (UniProt Q13155) | inactive: 0.006
AHCTF1 isoform 2 (UniProt Q8WYP5) | inactive: 0.038
AKR1B10 (UniProt O60218) | inactive: -0.929
ACTN4 (UniProt K7EJH8) | inactive: 0.064
ADAD1 (UniProt Q96M93) | inactive: 0

These targets were tested with C=CC(=O)N1CCC[C@@H](n2nc(-c3ccc(Oc4ccccc4)cc3)c3c(N)ncnc32)C1 [ibrutinib] in the same assay as above.
In short: as §1

Target | log2 fold change
ADPRM (UniProt Q3LIE5) | inactive: -0.418
ADK, A0A5F9ZH76 | inactive: 0.168
ACSS3 (UniProt Q9H6R3) | inactive: 0.041
ACSS1 (UniProt Q9NUB1) | inactive: 0.074
ADAT1 (UniProt Q9BUB4) | inactive: 0.087
AIMP2 isoform 2 (UniProt Q13155) | inactive: -0.28
ACTB (UniProt C9JUM1) | inactive: 0.034
ACTB, A0A2R8YGF8 | inactive: -0.037
AHDC1 (UniProt Q5TGY3) | inactive: 0
ACTB (UniProt C9JTX5) | inactive: 0.198
ACTN4 (UniProt K7EJH8) | inactive: 0.146
ACOX3 (UniProt O15254) | inactive: -0.084
ACVR1 (UniProt Q04771) | inactive: -0.047
AHSP (UniProt Q9NZD4) | inactive: -0.009
AGTRAP isoform 2 (UniProt Q6RW13) | inactive: 0.07

The targets below were run with CC(=O)c1cnc2ccc(-c3cc(Cl)c(O)c(Cl)c3)nc2c1N[C@H]1CC[C@H](CN(C)C)CC1 in the same assay as above.
In short: as §1

Target | log2 fold change
ADK, A0A5F9ZH76 | inactive: 0.005
ACSS1 (UniProt Q9NUB1) | inactive: -0.073
AGO2 (UniProt E5RJY2) | inactive: -0.036
ACTG1 (UniProt K7EM38) | inactive: -0.044
AKR7L (UniProt Q8NHP1) | inactive: 0.027
ACTB, A0A2R8YEA7 | inactive: -0.073
AIMP2 isoform 2 (UniProt Q13155) | inactive: 0.064
ACTB (UniProt C9JUM1) | inactive: 0.095
AHCTF1 isoform 2 (UniProt Q8WYP5) | inactive: -0.023
ACTB (UniProt C9JTX5) | inactive: 0.101
ACTN4 (UniProt K7EJH8) | inactive: 0.044
ADCK5 (UniProt Q3MIX3) | inactive: -0.084
AHSP (UniProt Q9NZD4) | inactive: -0.069
AFDN (UniProt A8MQ02) | inactive: 0.085
AGTRAP isoform 2 (UniProt Q6RW13) | inactive: -0.121
ADAD1 (UniProt Q96M93) | inactive: -0.032

These targets were tested with CC(C)(C)Cn1c(N)nc2ccc(-c3[nH]c(C(C)(C)C)nc3-c3ccc(F)cc3)nc21 [ralimetinib] in the same assay as above.
In short: as §1

Target | log2 fold change
ADPRM (UniProt Q3LIE5) | inactive: -0.035
ACSS1 (UniProt Q9NUB1) | inactive: -0.13
AFMID isoform 2 (UniProt Q63HM1) | inactive: 0.12
ADCY3 (UniProt O60266) | inactive: -0.083
ACTN4 (UniProt H7C144) | inactive: 0.079
AIMP2 isoform 2 (UniProt Q13155) | inactive: 0.061
AHCTF1 isoform 2 (UniProt Q8WYP5) | inactive: -0.088
AKR1B10 (UniProt O60218) | inactive: 1.16
ACTN4 (UniProt K7EJH8) | inactive: -0.024
ADAD1 (UniProt Q96M93) | inactive: 0.005

What follows are targets tested with CC(C)(O)CC(=O)NCCn1ccc2ncnc(Nc3ccc(Oc4cccc(C(F)(F)F)c4)c(Cl)c3)c21 in the same assay as above.
In short: as §1

Target | log2 fold change
ADPRM (UniProt Q3LIE5) | inactive: -0.128
ACSS1 (UniProt Q9NUB1) | inactive: -0.071
AFMID isoform 2 (UniProt Q63HM1) | inactive: 0.065
ADCY3 (UniProt O60266) | inactive: -0.037
ACTN4 (UniProt H7C144) | inactive: -0.017
AIMP2 isoform 2 (UniProt Q13155) | inactive: -0.036
AHCTF1 isoform 2 (UniProt Q8WYP5) | inactive: 0
AKR1B10 (UniProt O60218) | inactive: 0.981
ACTN4 (UniProt K7EJH8) | inactive: 0.027
ADAD1 (UniProt Q96M93) | inactive: -0.092
